# Test results reported in PubChem BioAssay AID743255 (National Center for Advancing Translational Sciences (NCATS), 2014).
# Amino acid sequences for entries named in this document (tags omitted). A change or cut given only in a name is not applied to a line headed by its entry.
# UniProt O94782: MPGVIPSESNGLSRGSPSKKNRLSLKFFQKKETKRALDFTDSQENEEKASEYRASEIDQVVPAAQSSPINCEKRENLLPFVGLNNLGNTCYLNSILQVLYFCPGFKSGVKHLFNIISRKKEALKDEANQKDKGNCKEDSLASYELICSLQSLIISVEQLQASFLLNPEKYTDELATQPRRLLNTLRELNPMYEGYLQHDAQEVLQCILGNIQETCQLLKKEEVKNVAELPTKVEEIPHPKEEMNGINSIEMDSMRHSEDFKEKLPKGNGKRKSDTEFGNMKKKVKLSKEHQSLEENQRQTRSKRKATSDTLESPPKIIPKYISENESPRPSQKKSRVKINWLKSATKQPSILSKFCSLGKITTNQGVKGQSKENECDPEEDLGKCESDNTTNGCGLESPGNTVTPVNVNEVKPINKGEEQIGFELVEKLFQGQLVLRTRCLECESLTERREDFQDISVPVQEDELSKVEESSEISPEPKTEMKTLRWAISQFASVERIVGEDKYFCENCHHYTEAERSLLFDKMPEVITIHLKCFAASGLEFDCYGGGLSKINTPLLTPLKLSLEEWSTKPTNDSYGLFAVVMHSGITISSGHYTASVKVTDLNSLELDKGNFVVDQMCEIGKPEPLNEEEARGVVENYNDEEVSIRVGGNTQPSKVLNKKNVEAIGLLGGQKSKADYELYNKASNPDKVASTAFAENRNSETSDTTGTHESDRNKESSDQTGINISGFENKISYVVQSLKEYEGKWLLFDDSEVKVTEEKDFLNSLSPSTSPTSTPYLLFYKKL
# Among all 390,000 compounds or so, about 910 (0.23%) were called active. The inconclusive results got no clear call from the source; some entries with a clear call stand among them for comparison. Calls come from the whole dose curve; as a rule, active = well fitted inhibition curve with a large enough effect; inconclusive = small, poorly fitted or top-dose-only effect; inactive = no such curve, though single readings can be large or run the other way. Where the call is inconclusive, the potency comes from a doubtful curve fit.
# Biological target: Ubiquitin carboxyl-terminal hydrolase 1 (Homo sapiens) (UniProt O94782)
# Assay: Inhibitors of USP1/UAF1: Primary Screen; note: nearly all actives have a fitted effect of over 60% in size
# Details: recombinant USP1/UAF1, Ub-Rhodamine cleavage fluorescence; activity change, negative = inhibition: at 57.1 µM (top of the series)
# Summary of the method: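 High-throughput fluorogenic screen: 1nM USP1/UAF1 complex, Ub-Rho substrate 150nM final, 50mM HEPES pH 7.8 with 0.5mM EDTA, 0.1 mg/ml BSA, 1mM TCEP and 0.01% Tween-20.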
# % is set by controls: 0 for no effect and ±100 for the full control effect; potency is the fitted concentration of half-maximal effect.
Compound,Potency,"activity change, negative = inhibition"
COc1ccc(S(=O)(=O)N(CC(=O)NCc2ccccc2OC)c2ccc(C)cc2)cc1,"inconclusive: 0.224 µM [inhibitor, full curve, poor fit]",–
Cn1c(O)c(C=Nc2ccc(N3CCOCC3)cc2)c(=O)n(C)c1=S,"inconclusive: 50.1 µM [inhibitor, partial curve, poor fit]",–
O=[N+]([O-])c1ccc(N(CCO)CCO)c2c1no[n+]2[O-],–,inactive: 52%
O=P(O)(CCc1ccccn1)CN1CCCCC1,"inconclusive: 8.91 µM [inhibitor, partial curve, poor fit]",–
N=C1c2ccccc2CN1NC(=O)c1ccc(Cl)cc1,"inconclusive: 7.94 µM [inhibitor, partial curve]",–
CC(C)n1c(/C=C/[C@@H](O)C[C@@H](O)CC(=O)O)c(-c2ccc(F)cc2)c2ccccc21,"inconclusive: 0.282 µM [inhibitor, full curve]",–
O=C1NC(=O)N(Cc2ccc(F)cc2)C(=O)/C1=C\c1ccc([N+](=O)[O-])s1,active: 28.2 µM,–
COc1ccc(Cn2c(N)c(C(=O)NCc3ccco3)c3nc4ccccc4nc32)cc1OC,"inconclusive: 28.2 µM [inhibitor, partial curve]",–
Cn1cc(/C=C2\C(=O)NC(=O)N(c3ccccc3)C2=O)c2ccccc21,"inconclusive: 35.5 µM [inhibitor, single point]",–
Cc1ccc(O)c(C)c1,"inconclusive: 7.94 µM [inhibitor, partial curve, poor fit]",–
N#CC1=C(N)Oc2c(c(=O)oc3ccccc23)C1c1ccc([N+](=O)[O-])o1 (configuration not stated),"inconclusive: 39.8 µM [inhibitor, partial curve, poor fit]",–
Oc1c(Cl)cccc1Cc1cc(Cl)cc(Cl)c1O,–,inactive: -5.43%
CCC1(CC)C(=O)C=CNC1=O,"inconclusive: 8.91 µM [inhibitor, partial curve, poor fit]",–
CCN1/C(=C\C=C\C2=[N+](CC)c3ccccc3C2(C)C)C(C)(C)c2ccccc21,active: 14.1 µM,–
COC(=O)C1=C(c2ccc(C(C)=O)cc2)C[C@@H]2CC[C@H]1N2C(=O)N1CCC(O)CC1,"inconclusive: 0.708 µM [inhibitor, full curve, poor fit]",–
O=[N+]([O-])c1ccc(N2CC2)c([N+](=O)[O-])c1,"inconclusive: 39.8 µM [inhibitor, partial curve, poor fit]",–
O=C(O)Cn1cc(/C=C2\C(=O)NC(=O)N(c3ccc(Br)cc3)C2=O)c2ccccc21,"inconclusive: 2.24 µM [inhibitor, partial curve]",–

# Part of the list above in order of molar mass, low to high.
Compound,Potency,"activity change, negative = inhibition"
Oc1c(Cl)cccc1Cc1cc(Cl)cc(Cl)c1O,–,inactive: -5.43%
CCN1/C(=C\C=C\C2=[N+](CC)c3ccccc3C2(C)C)C(C)(C)c2ccccc21,active: 14.1 µM,–
COc1ccc(S(=O)(=O)N(CC(=O)NCc2ccccc2OC)c2ccc(C)cc2)cc1,"inconclusive: 0.224 µM [inhibitor, full curve, poor fit]",–
